About 22,000 (6.9%) of roughly 320,000 compounds were called active. Inconclusive means that the source gave no clear call. Such entries were picked first, then a sample of the others. Calls follow the shape of the dose curve; as a rule, active = well fitted inhibition curve with a large enough effect; inconclusive = small, poorly fitted or top-dose-only effect, or another doubt; inactive = no such curve, though single readings can be large or run the other way. Potencies beside an inconclusive call are fits to weak or partial responses and may not hold up.
Test: Primary qHTS for delayed death inhibitors of the malarial parasite plastid, 96 hour incubation
Details: P. falciparum luciferase reporter growth; series mostly up to 28.7 µM; activity change, negative = inhibition: at the top concentration
Outline: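 96 h incubation, 37 C, 5% CO2, of luciferase-reporter P. falciparum-infected RBCs (2% hematocrit, 0.05% parasitemia final) with test compounds; endpoint luminescence.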
% is scaled to controls: 0 for no effect and ±100 for the full control effect; potency is read from the fitted curve at half-maximal effect.

| Structure (SMILES) | Potency | activity change, negative = inhibition |
| --- | --- | --- |
| COCCn1c(SC)nnc1-c1c[nH]c2ccccc12 | inconclusive: 2.33 µM [inhibitor, single point] | – |
| O=C(NCc1ccc(F)cc1)C1CCN(C(=O)NCc2ccccc2)CC1 | inconclusive: 16.5 µM [inhibitor, single point] | – |
| CCCCCSc1cc(O)c(C(CNC)C(C)C)cc1OC (configuration not stated) | active: 0.465 µM | – |
| COC(=O)/C(=N/Nc1ccccc1OC)N1CCCc2ccccc21 | inconclusive: 10.4 µM [inhibitor, partial curve, poor fit] | – |
| O=C(c1ccc(S(=O)(=O)NCC2CCCO2)cc1)N1CCN(c2ccccc2F)CC1 (configuration not stated) | – | inactive: -0.944% |
| O=C(c1cc2ccccn2n1)N1CCN(c2cccc(C(F)(F)F)c2)CC1 | active: 9.28 µM | – |
| O=C(O)c1ccccc1-c1noc(-c2ccccc2F)n1 | inconclusive: 13.1 µM [activator, partial curve] | – |
| Cc1ccc2nc(NCCc3ccccc3)c3nncn3c2c1 | – | inactive: 186% |
| O=C(Nc1ccc(Cl)cc1)N1CCCC(Cn2cccc2)C1 (configuration not stated) | – | inactive: 15.9% |
| COC(=O)[C@@H]1C[C@H]2CC[C@H](O)C[C@H]2N1Cc1ccc(C)s1 | – | inactive: 42.6% |
| O=C1NC(=O)/C(=C\c2ccc(N3CCOCC3)o2)N1 | inconclusive: 3.29 µM [inhibitor, full curve, poor fit] | – |
| COCCn1c(=N)c(C(=O)NCc2ccco2)cc2c(=O)n3cc(C)ccc3nc21 | – | inactive: 14.3% |
| Cc1cc(Cl)ccc1C1=CC(=O)C[C@H](c2ccc(F)cc2)C1 | inconclusive: 5.86 µM [inhibitor, single point] | – |
| COc1ccc(CNC(=O)c2ccc3ccccc3n2)cc1 | inconclusive: 18.5 µM [inhibitor, single point] | – |
| CCCC(C(=O)NC1CCCC1)N(CC1CCCO1)C(=O)CNS(=O)(=O)c1ccc(F)cc1 (configuration not stated) | inconclusive: 18.5 µM [inhibitor, single point] | – |
| Cc1cc(C(=O)CSc2nnc(-c3ccccc3F)o2)c(C)n1Cc1cccs1 | – | inactive: 0% |
| CCN(CC)C(=O)c1cccc(NC(=O)c2cc(-c3ccccn3)nc3ccccc23)c1 | – | inactive: -10.4% |
| CCN1CSC(=S)N(Cc2ccccc2)C1 | – | inactive: 11.3% |
| COc1cccc(C2=CC(c3ccc(OC)c(OC)c3)NC(=S)N2)c1 (configuration not stated) | inconclusive: 10.4 µM [inhibitor, single point] | – |
| C=CCc1cc(OC)ccc1OCCOCCN1CCc2ccccc2C1 | active: 13.1 µM | – |
| O=C(COc1ccc(-n2ccnc2)cc1)Nc1cccc(Cl)c1 | inconclusive: 11.7 µM [inhibitor, single point] | – |
| CC(C)(C)NC(=O)COc1ccc(CNCc2cccs2)cc1 | inconclusive: 0.37 µM [inhibitor, partial curve, poor fit] | – |

Record cards (already shown). Values in the order: Potency	activity change, negative = inhibition
COC(=O)/C(=N/Nc1ccccc1OC)N1CCCc2ccccc21 is listed as inconclusive: 10.4 µM [inhibitor, partial curve, poor fit]	–
O=C(COc1ccc(-n2ccnc2)cc1)Nc1cccc(Cl)c1 is listed as inconclusive: 11.7 µM [inhibitor, single point]	–

— PubChem BioAssay AID504834 (National Center for Advancing Translational Sciences (NCATS), 2011)
